Data as given in paper PMC12040169 (PLOS Biology, 2025).
Where two headings read alike, the source gives them in different places. This is one part of the list.

Tested on: T1, CTL2-GFP (C. trachomatis L2/434/Bu, GFP-expressing)
T1 construct: L2/434/Bu, GFP-expressing
Design: species or system HeLa; Intracellular C. trachomatis growth in HeLa cells, bulk GFP fluorescence relative to DMSO
Conditions: bulk GFP, single well, 28.5 h, 10 µM, inhibitor

SMILES | % of control remaining [%] | % of control remaining (Bulk GFP fluorescence) [%]
CCOc1cc(Br)ccc1S(=O)(=O)NCc1ccc2c(c1)OCO2 [CBK268813] | 153.017 | –
Cc1nonc1CN(C)C(=O)c1ccc2c(c1)c(C)c(C)n2C [CBK281442] | 119.956 | –
COc1ccc(C(=O)O)cc1CN1CCOCC1 [CBK287029] | 122.184 | –
COCC(C)N(C)S(=O)(=O)c1ccc(Cl)nc1 (centres unmarked) [CBK304813] | 111.453 | –
CC(=O)N1CC2(CCN(C(=O)C(C)(C)C)CC2)Nc2ccccc21 [CBK284448] | 72.5789 | –
Cc1ccc(Nc2ncc3c(n2)CCCC3=O)cc1 [CBK288143] | 123.423 | –
O=[N+]([O-])c1cccc(CNc2nccnc2-c2ccccc2F)c1 [CBK037416] | 145.795 | –
N#Cc1cccc(OCC(=O)NCC2(N3CCOCC3)CCSC2)c1 (centres unmarked) [CBK305685] | 125.408 | –
COc1ccc(CN2CC[C@H]3NC(=O)CNC(=O)C4(C/C=C/C[C@H]3C2)CCN(C(C)=O)CC4)cc1 [CBK292013] | 137.228 | –
Cc1ccc(-c2nc3ncc(C#N)c(N)n3n2)cc1 [CBK288153] | 107.147 | –
CN(C1CCCCC1)C1CCN(CCc2ccccc2)CC1 [CBK261918] | 111.136 | –
COc1cc(-c2nccnc2NCCCO)cc(OC)c1OC [CBK037274] | 105.455 | –
CC(C)CCN1CCC2CN(CCCC(c3ccc(F)cc3)c3ccc(F)cc3)CCN2C1=O (centres unmarked) [CBK024898C] | 138.453 | –
O=C(NC1CCCCC1)C1CCC1 [CBK011511] | 115.007 | –
O=S(=O)(N1CCNCC1)N1CCOCC1 [CBK267467] | 144.202 | –
CCn1c(SCC(=O)NC2CC2)nc2ccccc21 [CBK305864] | 104.715 | –
COCC(=O)NC1CCN(CC2(c3ccc(F)cc3)CCCC2)CC1 [CBK285387] | 127.386 | –
O=C1COc2ccccc2CCCC[C@@H]2CN(C(=O)Cn3ccc(=O)[nH]c3=O)CC[C@H]2N1 [CBK292048] | 171.615 | –
Cn1c(=O)c2c(ncn2Cc2ccccc2)n(C)c1=O [CBK133402] | 46.6627 | –
CCC(=O)N1CCC(NCc2ccc(OCC(N)=O)cc2)C(C)C1 (centres unmarked) [CBK303989] | 164.994 | –
Nc1ccc(-c2ccc3c(c2)OCCCO3)c2ccccc12 [CBK084325] | 96.4018 | –
CC(C)(C)OC(=O)N1CCN(c2nccnc2OCCO)CC1 [CBK001869] | 90.3654 | –
O=C(C1CCCCC1)N1CC[C@H](c2nnc(-c3cccnc3)o2)C1 [CBK289412] | 104.383 | –
CCCCN1CCN(S(=O)(=O)c2ccc(Br)cc2)CC1 [CBK144055] | 110.392 | –
O=C(c1cncnc1)N1CCC(Cc2ccccc2)CC1 [CBK200212] | 122.278 | –
CC(C)C(=O)N1CCCC2(CC1)CN(C)Cc1ccccc1O2 (centres unmarked) [CBK285132] | 118.319 | –
Cc1ccc(-c2nccnc2OCc2ccco2)cc1C [CBK106863] | 249.952 | –

Structures listed so far with nitrogen in an aromatic ring:
SMILES | % of control remaining [%] | % of control remaining (Bulk GFP fluorescence) [%]
Cc1nonc1CN(C)C(=O)c1ccc2c(c1)c(C)c(C)n2C [CBK281442] | 119.956 | –
COCC(C)N(C)S(=O)(=O)c1ccc(Cl)nc1 (centres unmarked) [CBK304813] | 111.453 | –
Cc1ccc(Nc2ncc3c(n2)CCCC3=O)cc1 [CBK288143] | 123.423 | –
O=[N+]([O-])c1cccc(CNc2nccnc2-c2ccccc2F)c1 [CBK037416] | 145.795 | –
Cc1ccc(-c2nc3ncc(C#N)c(N)n3n2)cc1 [CBK288153] | 107.147 | –
COc1cc(-c2nccnc2NCCCO)cc(OC)c1OC [CBK037274] | 105.455 | –
CCn1c(SCC(=O)NC2CC2)nc2ccccc21 [CBK305864] | 104.715 | –
O=C1COc2ccccc2CCCC[C@@H]2CN(C(=O)Cn3ccc(=O)[nH]c3=O)CC[C@H]2N1 [CBK292048] | 171.615 | –
Cn1c(=O)c2c(ncn2Cc2ccccc2)n(C)c1=O [CBK133402] | 46.6627 | –
CC(C)(C)OC(=O)N1CCN(c2nccnc2OCCO)CC1 [CBK001869] | 90.3654 | –
O=C(C1CCCCC1)N1CC[C@H](c2nnc(-c3cccnc3)o2)C1 [CBK289412] | 104.383 | –
O=C(c1cncnc1)N1CCC(Cc2ccccc2)CC1 [CBK200212] | 122.278 | –
Cc1ccc(-c2nccnc2OCc2ccco2)cc1C [CBK106863] | 249.952 | –

Carrying on.

SMILES | % of control remaining [%] | % of control remaining (Bulk GFP fluorescence) [%]
O=C(CSc1nc2sc3c(c2c(=O)n1CCc1ccccc1)CCCC3)Nc1ccccc1 [CBK267281] | 100.729 | –
O=C(O)c1n[nH]c2c1COc1ccccc1-2 [CBK266356] | 108.977 | –
c1ccc(CN2CCC(NCc3ccco3)C(c3ccccc3)C2)cc1 (centres unmarked) [CBK286167] | 114.847 | –
CCOc1ccc(S(=O)(=O)N2CCN(S(=O)(=O)c3cccc([N+](=O)[O-])c3)CC2)cc1 [CBK266341] | 145.316 | –
CCc1nc2c(OCCOc3ccccc3)cccn2c1N(C)C(=O)COc1ccccc1 [CBK147355] | 118.842 | –
COc1ccc2c(C)nc(NC3=NC(c4ccccc4)CC(=O)N3)nc2c1 (centres unmarked) [CBK270230] | 167.138 | –
CC(C)c1ccc2oc(-c3ccc(NC(=S)NC(=O)c4cncc(Br)c4)cc3)nc2c1 [CBK264913] | 137.352 | –
CCOC(=O)c1cc(NC(=O)CSc2nc3ccccc3[nH]2)ccc1Cl [CBK266557] | 145.041 | –
COC(=O)c1ccc(-c2cc3ccccc3o2)nc1 [CBK149228T] | – | 129.117
O=[N+]([O-])c1ccc(OC(CNS(=O)(=O)c2ccc(Cl)cc2)c2ccccc2)cc1 (centres unmarked) [CBK262817] | 79.924 | –
COc1ccccc1C(=O)O/N=C1/CCCc2c1ccc(OC)c2[N+](=O)[O-] [CBK263555] | 63.5967 | –
CCOc1cc2c(cc1NC(=O)CN(c1cccc(Cl)c1)S(C)(=O)=O)OC(C)C2 (centres unmarked) [CBK248179] | 147.183 | –
CC(Oc1ccccc1F)C(=O)N1CCCCC1CN(C)C (centres unmarked) [CBK281544] | 137.853 | –
COCC1(C(=O)N2CC(=O)N(c3ccccc3C#N)CC2C)CCC1 (centres unmarked) [CBK307159] | 134.703 | –
O=C(N[C@@H]1CNCCC[C@H]1O)c1ccc(OCCN2CCOCC2)cc1 [CBK289065] | 121.292 | –
CC(=O)NC1CCN(c2nc(C(C)(C)C)nc3c2cnn3C)CC1 [CBK307431] | 119.815 | –
CC1=CC(C)C2C(=O)N(c3ccc(C(=O)O)cc3)C(=O)C2C1 (centres unmarked) [CBK286923] | 119.333 | –
CC(=O)Nc1ccc(CNc2ncccc2OC(F)F)cc1 [CBK306016] | 127.5 | –
C#C[C@H]1C[N@@]2CC[C@H]1C[C@@H]2CNC(=O)Nc1ccc(C(C)=O)cc1 [CBK288755] | 115.16 | –
O=c1[nH]ccn1CCNc1ccc(-c2ccccc2Oc2ccccc2)cn1 [CBK037665] | 87.9916 | –
CC(=O)N1CCC2(CC1)CC(O)c1cc(C)c(C)cc1O2 (centres unmarked) [CBK282826] | 96.0905 | –
CSc1cc(C)c(O)c(CO)c1 [CBK020687] | 128.727 | –
COc1ccc(-c2nnc(SCC(=O)O)n2-c2cccc(C(F)(F)F)c2)cc1OC [CBK268347] | 142.778 | –
Cc1ccc(NC(=O)c2ccncc2)c(Br)c1 [CBK058282] | 133.495 | –
CN(C)c1ncc(-c2ccc(O)cc2)cc1C(=O)NCc1ccc(F)cc1 [CBK106396] | 100 | –
CCOc1ccccc1Nc1c([N+](=O)[O-])nn(-c2ccc(OC)cc2)[n+]1[O-] [CBK268411] | 123.449 | –
CC(C(=O)N(CCC#N)Cc1cccnc1)n1cnc2ccccc21 (centres unmarked) [CBK304127] | 114.124 | –

SMILES | % of control remaining [%] | % of control remaining (Bulk GFP fluorescence) [%]
COc1cc(S(=O)(=O)N2CCC(C(N)=O)CC2)ccc1Br [CBK268766] | 147.041 | –
Fc1cccc(-c2c[nH]nc2C2CCOCC2)c1 [CBK283465] | 104.206 | –
Cc1cc(C)c(OCCNC(=O)c2ccccc2Sc2ccccc2C#N)c(C)c1 [CBK266048] | 88.8791 | –
Cc1nc(-c2ccccc2)sc1C(=O)C1=C(O)C(=O)N(CCCN2CCOCC2)C1c1cccs1 (centres unmarked) [CBK266601] | 79.6304 | –
CCOC(=O)c1cnc2ccc(F)cc2c1NCCN(C)C [CBK265751] | 138.65 | –
CSc1nc(C)cc(OCC(=O)Nc2ccc(Cl)cc2)n1 [CBK267525] | 163.488 | –
CC1(c2ccco2)NC(=O)N(Cc2ncc(-c3cccs3)o2)C1=O (centres unmarked) [CBK305398] | 143.605 | –
CNC(=O)NC(=O)C1CCN(CCc2cccs2)CC1 [CBK034960] | 137.471 | –
COc1ccc(CC(=O)Nc2ccc(S(=O)(=O)NC(C)C)cc2)cc1 [CBK267833] | 90.7478 | –
COc1cccc(C(=O)Nc2cc3c(cc2C(O)c2ccccc2Cl)OCCO3)c1 (centres unmarked) [CBK268004] | 116.886 | –
Cc1cc2nc(COC(=O)N3CCOCC3)[nH]c2cc1C [CBK200144] | 72.3354 | –
CC(=O)N1CCC(C(=O)N2CCC(C(=O)NC(c3ccccn3)c3cccs3)CC2)CC1 (centres unmarked) [CBK060118] | 109.408 | –
CC(C)NC(=O)[C@H]1CN2CCC1C[C@@H]2Cn1cc(C2(O)CCCCC2)nn1 (some centres unmarked) [CBK288732] | 132.895 | –
O=C(O)c1cc2ncc(-c3n[nH]cc3[N+](=O)[O-])cn2n1 [CBK269072] | 137.852 | –
O=C1CN(C(=O)NCc2ccc(Cl)cc2)CCN1 [CBK155867] | 139.513 | –
O=C(Nc1cnc2ccccc2c1)OCCc1cccnc1 [CBK200126] | 68.015 | –
O=C(Nc1ccccn1)C1CCCN1c1nc(O)cc(C(F)(F)F)n1 (centres unmarked) [CBK004254] | 122.882 | –
NC(=O)c1c(NC(=O)COc2ccc(Cl)cc2)sc2c1CCC2 [CBK262163] | 102.92 | –
O=C(NCc1ccccn1)c1cnn(-c2ccc(Cl)cc2)c1C(F)(F)F [CBK116637T] | 90.605 | –
COCCNc1nc(-c2ccccc2CO)ccc1C(=O)NCCNC(C)=O [CBK076548] | 108.598 | –
O=C(Cc1c[nH]c(=O)[nH]c1=O)N1CCCCC1c1nc2cc(F)ccc2[nH]1 (centres unmarked) [CBK291108] | 141.341 | –
FC(F)(F)c1nc2ccccc2nc1OCCN1CCNCC1 [CBK113302] | 98.9194 | –
COc1ccc(-c2ccc(CN(Cc3ccc4c(c3)OCO4)CC(C)O)cc2)cc1 (centres unmarked) [CBK286470] | 92.3062 | –
CN(C)c1ccc(NC(=O)CN2C(=O)[C@H]3CCCN3c3ncccc32)cc1 [CBK286202] | 144.31 | –
COc1ccc(S(=O)(=O)N(CC(=O)Nc2cccnc2)c2ccc(F)cc2)cc1 [CBK268445] | 120.453 | –
O=c1[nH]c(=S)[nH]c2c1CCC2 [CBK113252] | 127.059 | –

Arranged by molecular weight (low to high): 3 of the compounds above
SMILES | % of control remaining [%] | % of control remaining (Bulk GFP fluorescence) [%]
C#C[C@H]1C[N@@]2CC[C@H]1C[C@@H]2CNC(=O)Nc1ccc(C(C)=O)cc1 [CBK288755] | 115.16 | –
COc1ccc2c(C)nc(NC3=NC(c4ccccc4)CC(=O)N3)nc2c1 (centres unmarked) [CBK270230] | 167.138 | –
COc1ccc(CC(=O)Nc2ccc(S(=O)(=O)NC(C)C)cc2)cc1 [CBK267833] | 90.7478 | –
